Results deposited as PubChem BioAssay AID1224830 (NIAID, 2016)
Shown is one part, drawn at random, of about 18,000 deposited reagents. Over the whole deposit, about 2,900 (16%) were called active. 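Calls are made per well; low scores hint the gene aids the LPS response, high scores that it dampens it.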 Repeated entries: four replicate wells of each siRNA pool.

Aim: 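Host factors that control LPS-induced TNF expression in human macrophages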 (primary screen)
Cells: human THP-1 monocytic leukaemia cells, TNF dual-luciferase reporter clone, PMA-differentiated to macrophage-like cells
Reagent: siRNA pool against human genes, 50 nM
Duration: LPS for 4 h, given about 3 days after siRNA transfection
Treatment: bacterial LPS (TLR4 ligand), 10 ng/ml
Measured: 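Ratio of firefly to renilla light, scaled to the plate median and expressed as a robust z-score per replicate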
Reading the numbers: TNF reporter robust z-score: higher = stronger TNF reporter response to LPS
Call rule: 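Each well counts as active if its z-score is over 2.8 or under -1.5; controls are left without a call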

| gene symbol | TNF reporter robust z-score | activity call |
| --- | --- | --- |
| MSMO1 (methylsterol monooxygenase 1) | 3.7 | active |
| MSMO1 (methylsterol monooxygenase 1) | 1.36 | inactive |
| MSMO1 (methylsterol monooxygenase 1) | 2.5 | inactive |
| MSMO1 (methylsterol monooxygenase 1) | 2.15 | inactive |
| LRRC20 (leucine rich repeat containing 20) | 0.75 | inactive |
| LRRC20 (leucine rich repeat containing 20) | 0.85 | inactive |
| LRRC20 (leucine rich repeat containing 20) | 1.14 | inactive |
| LRRC20 (leucine rich repeat containing 20) | 1.31 | inactive |
| CIAO2A (cytosolic iron-sulfur assembly component 2A) | -0.15 | inactive |
| CIAO2A (cytosolic iron-sulfur assembly component 2A) | -0.99 | inactive |
| CIAO2A (cytosolic iron-sulfur assembly component 2A) | -1.24 | inactive |
| CIAO2A (cytosolic iron-sulfur assembly component 2A) | -0.93 | inactive |
| CIAO2A (cytosolic iron-sulfur assembly component 2A) | 3.37 | active |
| CIAO2A (cytosolic iron-sulfur assembly component 2A) | 1.44 | inactive |
| CIAO2A (cytosolic iron-sulfur assembly component 2A) | 2.47 | inactive |
| CIAO2A (cytosolic iron-sulfur assembly component 2A) | 2.34 | inactive |
| TBPL2 (TATA-box binding protein like 2) | -0.95 | inactive |
| TBPL2 (TATA-box binding protein like 2) | -1.51 | active |
| TBPL2 (TATA-box binding protein like 2) | -1.39 | inactive |
| TBPL2 (TATA-box binding protein like 2) | -0.04 | inactive |
| MSH6 (mutS homolog 6) | 0.27 | inactive |
| MSH6 (mutS homolog 6) | 0.36 | inactive |
| MSH6 (mutS homolog 6) | 0.99 | inactive |
| MSH6 (mutS homolog 6) | 0.48 | inactive |
| TOMM20L (translocase of outer mitochondrial membrane 20 like) | -0.85 | inactive |
| TOMM20L (translocase of outer mitochondrial membrane 20 like) | -1.35 | inactive |
| TOMM20L (translocase of outer mitochondrial membrane 20 like) | 2.72 | inactive |
| TOMM20L (translocase of outer mitochondrial membrane 20 like) | -0.61 | inactive |
| JRKL (JRK like) | -0.37 | inactive |
| JRKL (JRK like) | 0.39 | inactive |
| JRKL (JRK like) | -0.07 | inactive |
| JRKL (JRK like) | 0.07 | inactive |
| SLC2A10 | 2.07 | inactive |
| SLC2A10 | -0.23 | inactive |
| SLC2A10 | 1.7 | inactive |
| SLC2A10 | 0.65 | inactive |
| LAP3 (leucine aminopeptidase 3) | -0.49 | inactive |
| LAP3 (leucine aminopeptidase 3) | 0.23 | inactive |
| LAP3 (leucine aminopeptidase 3) | -0.92 | inactive |
| LAP3 (leucine aminopeptidase 3) | -0.65 | inactive |
| ALKAL1 (ALK and LTK ligand 1) | 2.24 | inactive |
| ALKAL1 (ALK and LTK ligand 1) | 2.03 | inactive |
| ALKAL1 (ALK and LTK ligand 1) | 0.35 | inactive |
| ALKAL1 (ALK and LTK ligand 1) | 2.16 | inactive |
| BTG4 (BTG anti-proliferation factor 4) | – | inactive |
| BTG4 (BTG anti-proliferation factor 4) | -1.7 | active |
| BTG4 (BTG anti-proliferation factor 4) | -1.8 | active |
| BTG4 (BTG anti-proliferation factor 4) | -1.84 | active |
| BTG4 (BTG anti-proliferation factor 4) | -1.53 | active |
| NXPE3 (neurexophilin and PC-esterase domain family member 3) | 1.29 | inactive |
| NXPE3 (neurexophilin and PC-esterase domain family member 3) | 0.7 | inactive |
| NXPE3 (neurexophilin and PC-esterase domain family member 3) | 1.18 | inactive |
| NXPE3 (neurexophilin and PC-esterase domain family member 3) | 2.31 | inactive |
| CASK (calcium/calmodulin dependent serine protein kinase) | -0.02 | inactive |
| CASK (calcium/calmodulin dependent serine protein kinase) | 0.37 | inactive |
| CASK (calcium/calmodulin dependent serine protein kinase) | -0.43 | inactive |
| CASK (calcium/calmodulin dependent serine protein kinase) | -0.76 | inactive |
| HAUS2 (HAUS augmin like complex subunit 2) | -0.04 | inactive |
| HAUS2 (HAUS augmin like complex subunit 2) | 1.02 | inactive |
| HAUS2 (HAUS augmin like complex subunit 2) | 0.2 | inactive |
| HAUS2 (HAUS augmin like complex subunit 2) | 0.91 | inactive |
| CD70 (CD70 molecule) | 2.08 | inactive |
| CD70 (CD70 molecule) | 3.26 | active |
| CD70 (CD70 molecule) | 1.39 | inactive |
| CD70 (CD70 molecule) | 2.31 | inactive |
| CHST14 (carbohydrate sulfotransferase 14) | -0.32 | inactive |
| CHST14 (carbohydrate sulfotransferase 14) | -0.22 | inactive |
| CHST14 (carbohydrate sulfotransferase 14) | -0.49 | inactive |
| CHST14 (carbohydrate sulfotransferase 14) | -0.15 | inactive |
| WNT2 (Wnt family member 2) | 0.19 | inactive |
| WNT2 (Wnt family member 2) | -0.11 | inactive |
| WNT2 (Wnt family member 2) | -0.22 | inactive |
| WNT2 (Wnt family member 2) | -0.02 | inactive |
| TBX18 (T-box transcription factor 18) | -0.79 | inactive |
| TBX18 (T-box transcription factor 18) | 0.59 | inactive |
| TBX18 (T-box transcription factor 18) | 0.37 | inactive |
| TBX18 (T-box transcription factor 18) | -0.75 | inactive |

Reprinted from above, 4 entries:
| gene symbol | TNF reporter robust z-score | activity call |
| --- | --- | --- |
| CHST14 (carbohydrate sulfotransferase 14) | -0.22 | inactive |
| CHST14 (carbohydrate sulfotransferase 14) | -0.49 | inactive |
| CHST14 (carbohydrate sulfotransferase 14) | -0.15 | inactive |
| WNT2 (Wnt family member 2) | 0.19 | inactive |
